Values quoted from earlier work as cited in US7531581B2, “Method and use of acidified modified polymers to bind biocides in paints” (I-Tech AB, priority 2005, dated 2009).
At least one compound was matched to its structure with a doubt left.

Tested on: barnacles
Conditions: serotonin antagonists and dopamine agonists

Q: With `CN1CCC(=C2c3ccccc3C=Cc3ccccc32)CC1` [Cyproheptadine] as the compound, how does the “effect on attachment of barnacles” value read?
A: inhibitory properties
